In patent US20020031818A1, “Modification of Mdm2 activity” (priority 2000, published 2002):
Results are given in words; binding and its absence hold for the method and conditions named. Some binding calls cover weakened binding; strength is not graded here.

Chains of the proteins cited; added tags and fusions are not shown. Lines headed by an entry give the natural chain unless they say otherwise; changes in a name come on top. Residues count along the entry.
UniProt P63280, residues 2-158: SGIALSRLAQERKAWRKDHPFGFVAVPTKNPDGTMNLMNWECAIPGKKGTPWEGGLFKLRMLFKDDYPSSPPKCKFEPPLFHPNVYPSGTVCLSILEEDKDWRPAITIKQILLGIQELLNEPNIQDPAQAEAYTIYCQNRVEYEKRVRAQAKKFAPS
UniProt Q00987: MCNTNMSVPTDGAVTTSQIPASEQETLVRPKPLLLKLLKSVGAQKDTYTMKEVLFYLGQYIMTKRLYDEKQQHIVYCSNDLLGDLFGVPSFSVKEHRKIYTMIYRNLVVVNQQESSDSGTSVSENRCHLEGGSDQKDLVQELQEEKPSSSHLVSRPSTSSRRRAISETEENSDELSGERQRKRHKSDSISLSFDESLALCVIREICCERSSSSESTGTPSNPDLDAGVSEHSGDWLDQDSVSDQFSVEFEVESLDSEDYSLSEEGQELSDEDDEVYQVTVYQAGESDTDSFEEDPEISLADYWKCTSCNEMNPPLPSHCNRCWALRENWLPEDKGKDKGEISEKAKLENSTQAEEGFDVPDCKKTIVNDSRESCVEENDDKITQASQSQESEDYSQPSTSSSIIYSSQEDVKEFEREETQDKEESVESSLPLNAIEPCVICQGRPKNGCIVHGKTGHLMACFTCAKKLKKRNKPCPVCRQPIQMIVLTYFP

Assays:
[1] = molecular target: Ubc9 of Mdm2/p53 double null cells (UniProt P63280); test: immunoprecipitation of Mdm2 (2A10) from Mdm2/p53 double null cells, immunoblot (FIG. 8B)
[2] = molecular target: Mdm2, wild type (no tag stated; in vitro translated or expressed in or immunoprecipitated from cells) (Homo sapiens (Human)) (UniProt Q00987); test: NIH3T3 cells co-transfected with Mdm2 and Sumo, after UV-irradiation (data not shown)

binding [1] | binding [2] | Substance
binds |  | Mdm2, wild type (no tag stated; in vitro translated or expressed in or immunoprecipitated from cells) (from UniProt Q00987 1-491) (enzyme)
 | binds | Ubc9 of mouse fibroblast cells (EJ cell lysates; NIH 3T3 cells) (from UniProt P63280 2-158) (enzyme)
